The text below walks through data of publication doi:10.1101/529172.

In the experiment the target is T1, Pto (UniProt Q40234).
T1 sequence: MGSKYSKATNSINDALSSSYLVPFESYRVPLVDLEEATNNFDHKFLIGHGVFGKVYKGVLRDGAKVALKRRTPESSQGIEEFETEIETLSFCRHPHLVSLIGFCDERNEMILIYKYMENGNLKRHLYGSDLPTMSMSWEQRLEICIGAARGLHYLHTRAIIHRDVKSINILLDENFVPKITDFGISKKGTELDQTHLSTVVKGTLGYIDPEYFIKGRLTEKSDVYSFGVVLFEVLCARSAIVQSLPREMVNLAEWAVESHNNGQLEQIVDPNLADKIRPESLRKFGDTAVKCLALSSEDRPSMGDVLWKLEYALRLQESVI
Briefly: two-hybrid.

Results are given in words; binding and its absence hold for the method and conditions named.

With “SlMai1 in the yeast two-hybrid assay with Pto (tomato (Solanum lycopersicum))”, the binding entry was “no binding”.
